pEC50: −log10 of the molar value. Structures were worked out from names or drawings and are uncertain.
Key:
[1] = biological target: T1, ΔF508 CFTR (Homo sapiens, UniProt P13569, DEL508-508); assay: Potentiator activity, YFP halide (iodide) quenching assay in FRT cells expressing ΔF508 CFTR, 27° C. pre-incubation; assay type: cell-based; details: read-out: Potentiator EC50, 24 hours at 27° C., compound with forskolin 30 min
[2] = biological target: T1, ΔF508 CFTR; assay: Corrector activity, YFP halide (iodide) quenching assay in FRT cells expressing ΔF508 CFTR; assay type: cell-based; details: read-out: Corrector EC50, 24 hours with compound at 37° C., forskolin and genistein

Amino acid sequences for entries named in this document (tags omitted). Chains listed by the source or under a name are the forms on record and can include a tag or linker.
UniProt P13569, with tags, fused parts or gaps DEL508-508: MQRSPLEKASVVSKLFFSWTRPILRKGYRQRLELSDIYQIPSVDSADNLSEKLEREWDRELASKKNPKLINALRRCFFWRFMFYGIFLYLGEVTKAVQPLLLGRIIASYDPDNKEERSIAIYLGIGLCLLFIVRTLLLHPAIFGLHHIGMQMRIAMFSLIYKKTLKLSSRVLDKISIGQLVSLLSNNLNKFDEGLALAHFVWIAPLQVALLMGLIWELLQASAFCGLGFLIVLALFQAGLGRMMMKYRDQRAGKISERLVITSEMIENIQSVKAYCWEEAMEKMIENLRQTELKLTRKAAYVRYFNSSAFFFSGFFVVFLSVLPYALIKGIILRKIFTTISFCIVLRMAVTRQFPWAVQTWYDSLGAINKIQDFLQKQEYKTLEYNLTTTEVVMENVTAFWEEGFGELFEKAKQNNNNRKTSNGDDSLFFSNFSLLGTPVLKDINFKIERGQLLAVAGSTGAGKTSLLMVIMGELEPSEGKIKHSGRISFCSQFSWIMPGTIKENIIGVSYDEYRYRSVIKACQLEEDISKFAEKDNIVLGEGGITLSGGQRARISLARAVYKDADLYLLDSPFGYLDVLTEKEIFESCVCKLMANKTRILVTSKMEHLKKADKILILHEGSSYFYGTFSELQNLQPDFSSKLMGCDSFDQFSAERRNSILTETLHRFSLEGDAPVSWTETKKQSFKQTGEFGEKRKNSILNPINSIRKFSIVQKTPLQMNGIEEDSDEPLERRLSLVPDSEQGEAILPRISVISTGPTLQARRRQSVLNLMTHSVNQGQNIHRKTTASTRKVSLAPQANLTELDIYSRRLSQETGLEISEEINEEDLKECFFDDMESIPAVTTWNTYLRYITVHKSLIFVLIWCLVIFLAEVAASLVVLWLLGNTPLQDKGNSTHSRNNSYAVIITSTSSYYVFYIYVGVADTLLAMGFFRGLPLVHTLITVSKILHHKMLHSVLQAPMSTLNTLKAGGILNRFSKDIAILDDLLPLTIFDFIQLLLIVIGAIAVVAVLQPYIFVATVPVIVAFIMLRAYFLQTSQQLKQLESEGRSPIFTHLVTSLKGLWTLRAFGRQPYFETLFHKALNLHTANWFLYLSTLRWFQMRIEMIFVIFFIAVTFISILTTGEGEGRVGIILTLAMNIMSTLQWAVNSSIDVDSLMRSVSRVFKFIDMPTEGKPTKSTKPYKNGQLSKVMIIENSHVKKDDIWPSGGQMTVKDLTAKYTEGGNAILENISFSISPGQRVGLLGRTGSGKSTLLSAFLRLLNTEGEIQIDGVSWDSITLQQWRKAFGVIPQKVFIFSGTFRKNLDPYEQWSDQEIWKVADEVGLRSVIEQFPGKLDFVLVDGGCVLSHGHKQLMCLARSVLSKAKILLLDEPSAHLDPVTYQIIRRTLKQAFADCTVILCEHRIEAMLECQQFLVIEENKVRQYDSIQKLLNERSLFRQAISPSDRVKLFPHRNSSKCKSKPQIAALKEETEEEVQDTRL

pEC50 [1]: < 4.82
pEC50 [2]: 5.00 to 5.30
Structure (SMILES): CCn1cc(-c2ccc(Cl)cc2)c2c(NC(C)=O)ncnc21

— patent US20100331297A1, “MODULATION OF PROTEIN TRAFFICKING” (FOLDRX PHARMACEUTICALS, INC., priority 2007, published 2010)
